Laboratory results published in the supplement of paper PMC7661543.
± gives the standard deviation of the averaged measurements. The effect of the compound repeats well; differences between the knockouts mostly do not.

Test system: BT-20
Assay: relative cell number vs DMSO control (72 h) (% of DMSO); higher = less growth inhibition (more cells)
Protocol: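 QMAP-Seq: a pool of 5 breast cancer cell lines (ZR-75-1, SKBR3, HCC-38, MDA-MB-231, BT-20), each carrying 12 doxycycline-inducible Cas9 sgRNA perturbations (11 knockouts plus non-targeting sgNT), was treated with compounds for 72 h at four 10-fold doses (10 nM-10 uM or 1 nM-1 uM range). Barcodes were amplified and sequenced, and cell number was interpolated from 293T spike-in standard curves. The result is expressed as % of the median of DMSO wells. Two biological replicates.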

CN1C(=O)C(Cc2c[nH]c3ccccc23)NC1=S (stereo not drawn) [Necrostatin1]
Conditions	relative cell number
sgRNA knockout: sgATF3, 10 nM	99.5 ± 5.4
sgRNA knockout: sgATF3, 100 nM	80.2 ± 12
sgRNA knockout: sgATF3, 1000 nM	82.3 ± 4.4
sgRNA knockout: sgATF3, 10000 nM	104 ± 13
sgRNA knockout: sgATF4, 10 nM	96.9 ± 7.7
sgRNA knockout: sgATF4, 100 nM	93.1 ± 8
sgRNA knockout: sgATF4, 1000 nM	110 ± 12
sgRNA knockout: sgATF4, 10000 nM	84.1 ± 13
sgRNA knockout: sgATF6, 10 nM	84.5 ± 13
sgRNA knockout: sgATF6, 100 nM	79.1 ± 21
sgRNA knockout: sgATF6, 1000 nM	80.9 ± 4.4
sgRNA knockout: sgATF6, 10000 nM	101 ± 10
sgRNA knockout: sgATG7, 10 nM	85.6 ± 3.6
sgRNA knockout: sgATG7, 100 nM	98.7 ± 17
sgRNA knockout: sgATG7, 1000 nM	96.4 ± 14
sgRNA knockout: sgATG7, 10000 nM	95.8 ± 7
sgRNA knockout: sgERN1, 10 nM	93.2 ± 8.1
sgRNA knockout: sgERN1, 100 nM	84.4 ± 3.9
sgRNA knockout: sgERN1, 1000 nM	94.7 ± 5.9
sgRNA knockout: sgERN1, 10000 nM	91.7 ± 5.4
sgRNA knockout: sgHSF1, 10 nM	90.9 ± 1.3
sgRNA knockout: sgHSF1, 100 nM	78.6 ± 27
sgRNA knockout: sgHSF1, 1000 nM	90.9 ± 12
sgRNA knockout: sgHSF1, 10000 nM	86.8 ± 11
sgRNA knockout: sgHSF2, 10 nM	77.2 ± 18
sgRNA knockout: sgHSF2, 100 nM	84.1 ± 6.2
sgRNA knockout: sgHSF2, 1000 nM	103 ± 20
sgRNA knockout: sgHSF2, 10000 nM	105 ± 3.5
sgRNA knockout: sgKEAP1, 10 nM	95.4 ± 4
sgRNA knockout: sgKEAP1, 100 nM	99.1 ± 1.1
sgRNA knockout: sgKEAP1, 1000 nM	93.5 ± 1.9
sgRNA knockout: sgKEAP1, 10000 nM	89.6 ± 7.8
sgRNA knockout: sgNFE2L2, 10 nM	93.8 ± 7.7
sgRNA knockout: sgNFE2L2, 100 nM	79.7 ± 3.4
sgRNA knockout: sgNFE2L2, 1000 nM	98.7 ± 10
sgRNA knockout: sgNFE2L2, 10000 nM	107 ± 41
sgRNA knockout: sgSLC35F2, 10 nM	83.6 ± 2.6
sgRNA knockout: sgSLC35F2, 100 nM	96.2 ± 13
sgRNA knockout: sgSLC35F2, 1000 nM	99.9 ± 3.5
sgRNA knockout: sgSLC35F2, 10000 nM	93 ± 2.6
sgRNA knockout: sgXBP1, 10 nM	106 ± 9.8
sgRNA knockout: sgXBP1, 100 nM	91.1 ± 17
sgRNA knockout: sgXBP1, 1000 nM	99.4 ± 19
sgRNA knockout: sgXBP1, 10000 nM	105 ± 25

FC(F)c1nc2ccccc2n1-c1nc(N2CCOCC2)nc(N2CCOCC2)n1 [ZSTK474]
Conditions	relative cell number
sgRNA knockout: sgATF3, 10 nM	81.7 ± 8.2
sgRNA knockout: sgATF3, 100 nM	98.4 ± 26
sgRNA knockout: sgATF3, 1000 nM	68.5 ± 15
sgRNA knockout: sgATF3, 10000 nM	44.8 ± 4.4
sgRNA knockout: sgATF4, 10 nM	95.5 ± 12
sgRNA knockout: sgATF4, 100 nM	111 ± 22
sgRNA knockout: sgATF4, 1000 nM	80.97 ± 0.71
sgRNA knockout: sgATF4, 10000 nM	53.5 ± 9.4
sgRNA knockout: sgATF6, 10 nM	84.69 ± 0.76
sgRNA knockout: sgATF6, 100 nM	80.2 ± 0.83
sgRNA knockout: sgATF6, 1000 nM	67.3 ± 26
sgRNA knockout: sgATF6, 10000 nM	49.4 ± 5.2
sgRNA knockout: sgATG7, 10 nM	86.1 ± 23
sgRNA knockout: sgATG7, 100 nM	88.8 ± 18
sgRNA knockout: sgATG7, 1000 nM	75.4 ± 14
sgRNA knockout: sgATG7, 10000 nM	47.5 ± 15
sgRNA knockout: sgERN1, 10 nM	88.7 ± 10
sgRNA knockout: sgERN1, 100 nM	79 ± 3.9
sgRNA knockout: sgERN1, 1000 nM	74.5 ± 8.1
sgRNA knockout: sgERN1, 10000 nM	40.7 ± 5.9
sgRNA knockout: sgHSF1, 10 nM	103 ± 16
sgRNA knockout: sgHSF1, 100 nM	88.9 ± 9.9
sgRNA knockout: sgHSF1, 1000 nM	84.2 ± 4.2
sgRNA knockout: sgHSF1, 10000 nM	46.3 ± 4.8
sgRNA knockout: sgHSF2, 10 nM	85.2 ± 14
sgRNA knockout: sgHSF2, 100 nM	94 ± 8.8
sgRNA knockout: sgHSF2, 1000 nM	73.9 ± 6.5
sgRNA knockout: sgHSF2, 10000 nM	46.5 ± 9.3
sgRNA knockout: sgKEAP1, 10 nM	94.6 ± 10
sgRNA knockout: sgKEAP1, 100 nM	88 ± 26
sgRNA knockout: sgKEAP1, 1000 nM	65.6 ± 3.1
sgRNA knockout: sgKEAP1, 10000 nM	51.8 ± 4.4
sgRNA knockout: sgNFE2L2, 10 nM	83.8 ± 22
sgRNA knockout: sgNFE2L2, 100 nM	106 ± 13
sgRNA knockout: sgNFE2L2, 1000 nM	75.81 ± 0.58
sgRNA knockout: sgNFE2L2, 10000 nM	47.5 ± 6.1
sgRNA knockout: sgSLC35F2, 10 nM	91 ± 11
sgRNA knockout: sgSLC35F2, 100 nM	87.4 ± 1.4
sgRNA knockout: sgSLC35F2, 1000 nM	68.7 ± 19
sgRNA knockout: sgSLC35F2, 10000 nM	51.6 ± 13
sgRNA knockout: sgXBP1, 10 nM	85.8 ± 15
sgRNA knockout: sgXBP1, 100 nM	92.3 ± 22
sgRNA knockout: sgXBP1, 1000 nM	78.9 ± 11
sgRNA knockout: sgXBP1, 10000 nM	42.4 ± 8.7
